The values that follow come from PubChem BioAssay AID330 (DTP/NCI, 2004).

The test system of the assay is P388 leukemia ip, CD2F1 mice, survival T/C. Description: NCI In Vivo Anticancer Drug Screen. Data for tumor model P388 Leukemia (intraperitoneal) in CD2F1 (CDF1) mice. The following applies: T/C endpoint: median survival time, higher T/C = longer survival.
Setting [1] is: dose: 50.0 mg/kg/injection, schedule: Q01DX009 (ip), vehicle: Klucel (hydroxypropylcellulose) (HPC).
Setting [2] is: dose: 100.0 mg/kg/injection, schedule: Q01DX009 (ip), vehicle: Klucel (hydroxypropylcellulose) (HPC).
Setting [3] is: dose: 200.0 mg/kg/injection, schedule: Q01DX009 (ip), vehicle: Klucel (hydroxypropylcellulose) (HPC).
Setting [4] is: dose: 200.0 mg/kg/injection, schedule: Q01DX005 (ip), vehicle: saline with Tween-80.
[5] abbreviates: dose: 200.0 mg/kg/injection, schedule: Q01DX005 (ip), vehicle: Klucel (hydroxypropylcellulose) (HPC).
The mark [6] stands for this setting: dose: 200.0 mg/kg/injection, schedule: Q01DX005 (ip), vehicle: saline.
The mark [7] stands for this setting: dose: 200.0 mg/kg/injection, schedule: Q01DX009 (ip), vehicle: saline with Tween-80.
The mark [8] stands for this setting: dose: 100.0 mg/kg/injection, schedule: Q01DX009 (ip), vehicle: saline with Tween-80.
Setting [9] is: dose: 25.0 mg/kg/injection, schedule: Q01DX009 (ip), vehicle: saline with Tween-80.
The mark [10] stands for this setting: dose: 0.07 mg/kg/injection, schedule: Q01DX009 (ip), vehicle: saline.
Setting [11] is: dose: 0.15 mg/kg/injection, schedule: Q01DX009 (ip), vehicle: saline.
Where [12] appears, read: dose: 0.31 mg/kg/injection, schedule: Q01DX009 (ip), vehicle: saline.

Structures are written as SMILES. The list does not hold the whole screen: it is rich in T/C values a quarter to a half above the control, in often repeated tests (any T/C) and in doses without a T/C. Further doses and runs are listed elsewhere. T/C is the treated group as % of the vehicle group. Some entries give survivors of the animals treated and no T/C: the source files T/C as zero there, which appears to mark a toxic dose or a test without result, not a measured value. Some survivor counts are full or nearly so, which does not show that the dose was tolerated: survival well below the control is almost never listed, so the zero probably covers shortened survival too. Survivors were counted at the toxicity check, usually on the fifth day, unless a day is given; later deaths do not show. Schedule codes are those of the source, taken here to give the interval after Q, in days (D) or hours (H), and the number of doses after X. Some entries were tested several times; the results are listed from low to high. For survival time, this PubChem deposit counts one and a half times the control or more as active, and values a quarter to a half above the control carry no call in these data; other NCI protocols may use other cut-offs. Some T/C values carry the count of animals alive at the toxicity check (mostly the fifth day); without a count, all were alive then.

With `Cc1cc(N2C(=O)CCSC2=S)ccc1Cl`, the T/C was 133 % of control under setting [1], 142 % of control [5 of 6 alive] under setting [2] and 141 % of control under setting [3]. Moreover, the survivor count (dose: 400.0 mg/kg/injection, schedule: Q01DX009 (ip), vehicle: Klucel (hydroxypropylcellulose) (HPC)) was 4 of 6.

Consider `O=C(Nc1ccccc1)Sc1ccc(Cl)cc1`, for which the survivor count under setting [4] is reported as 5 of 6.

Take `O=C([O][Sn]([O]C(=O)c1ccccc1)([c]1ccccc1)[c]1ccccc1)c1ccccc1`: the T/C (dose: 25.0 mg/kg/injection, schedule: Q01DX005 (ip), vehicle: Klucel (hydroxypropylcellulose) (HPC)) is 125 % of control [5 of 6 alive]. For the same molecule, the survivor count is 1 of 6 (dose: 50.0 mg/kg/injection, schedule: Q01DX005 (ip), vehicle: Klucel (hydroxypropylcellulose) (HPC)); 0 of 6 (dose: 100.0 mg/kg/injection, schedule: Q01DX005 (ip), vehicle: Klucel (hydroxypropylcellulose) (HPC)); 0 of 6 under setting [5].

As for `CC1CC(C)C(C)C(C)(CN(C)C)C1` (stereo not given), the survivor count (dose: 100.0 mg/kg/injection, schedule: Q01DX005 (ip), vehicle: saline with Tween-80) is recorded as 3 of 5 and the survivor count under setting [4] was 0 of 5.

As for `CCC1S(=O)(=O)OCCOS1(=O)=O`, the T/C (dose: 60.0 mg/kg/injection, schedule: Q01DX005 (ip), vehicle: Klucel (hydroxypropylcellulose) (HPC)) was 114, 115, 121, 142 % of control. The survivor count reads like this: (dose: 120.0 mg/kg/injection, schedule: Q01DX005 (ip), vehicle: Klucel (hydroxypropylcellulose) (HPC)) 3 of 6; (dose: 240.0 mg/kg/injection, schedule: Q01DX005 (ip), vehicle: Klucel (hydroxypropylcellulose) (HPC)) 0 of 6.

On to `[CH3][Sn]1([Cl])[O]CCNCC[O]1`, for which the T/C under setting [5] is 125 % of control.

In the case of `CC(=O)CCCCCCCCCCCCCCC1=C(C)C(=O)OC1=O`, under setting [5], the survivor count was 5 of 5.

Turning to `CC(C)CC(NC(=O)OC(C)(C)C)C(=O)ON1C(=O)CCC1=O` (stereo not given), the survivor count under setting [4] was 1 of 6.

For the molecule `CO[C@H]1/C=C/O[C@@]2(C)Oc3c(C)c(O)c4c(O)c(c(/C=N/N5C(C)CN(Cc6ccccc6)CC5C)c(O)c4c3C2=O)NC(=O)/C(C)=C\C=C\[C@H](C)[C@H](O)[C@@H](C)[C@@H](O)[C@@H](C)[C@H](OC(C)=O)[C@@H]1C` (stereo not given in full), the survivor count (dose: 50.0 mg/kg/injection, schedule: Q01DX009 (ip), vehicle: saline sonified) is on record as 6 of 6.

With `CN1C2CCC1C(O)C(c1ccc(Cl)cc1)C2` (stereo not given), under setting [5], the survivor count is 2 of 6.

In the case of `COCCOc1cccc2c1C(=O)c1ccccc1C2=O`, the survivor count under setting [4] is 5 of 5.

Regarding `C=CCN(CC=C)CC(C)(O)CNc1cc(OC)cc2cccnc12` (stereo not given), the survivor count under setting [6] is reported as 0 of 5.

Take `OCC[N-]CC[N-]CCO.[Cl][Co][Cl]`: the survivor count (dose: 200.0 mg/kg/injection, schedule: Q01DX009 (ip), vehicle: saline) was 0 of 6.

Turning to `N#CN=CN1CCC(Cc2ccccc2)CC1`, the survivor count under setting [7] is 6 of 6.

With `Cc1[nH]c2ccc(N(C)C)cc2c(=O)c1CN(C)C`, the survivor count under setting [3] is given as 0 of 6.

As to `O=C(O)CC(=O)c1ccccc1`, the survivor count under setting [8] is 6 of 6.

Turning to `COc1cc2cc(c1Cl)N(C)C(=O)CC(OC(=O)C(C)N(C)C(=O)C(C)C)C1(C)OC1C(C)C1CC(O)(NC(=O)O1)C(OC)/C=C/C=C(C)C2` (stereo not given), the T/C by setting is: (dose: 0.4 micrograms/kg/injection, schedule: Q01DX009 (ip), vehicle: saline) 130 % of control; (dose: 0.8 micrograms/kg/injection, schedule: Q01DX009 (ip), vehicle: saline) 135 % of control; (dose: 1.6 micrograms/kg/injection, schedule: Q01DX009 (ip), vehicle: saline) 147 % of control. The survivor count is on record as 9 of 10 (dose: 25.0 micrograms/kg/injection, schedule: Q01DX009 (ip), vehicle: saline + alcohol); 3 of 10 (dose: 50.0 micrograms/kg/injection, schedule: Q01DX009 (ip), vehicle: saline + alcohol); 8 of 10 (dose: 100.0 micrograms/kg/injection, schedule: Q01DX009 (ip), vehicle: saline + alcohol); 0 of 10 (dose: 200.0 micrograms/kg/injection, schedule: Q01DX009 (ip), vehicle: saline + alcohol).

Turning to `CSc1nc(NC2OCC(O)C(O)C2O)c(C=O)c(=O)n1C` (stereo not given), the survivor count (dose: 240.0 mg/kg/injection, schedule: Q01DX005 (ip), vehicle: saline with Tween-80) was 5 of 6.

As for `C=CCOC(CCC)OCC=C`, the survivor count under setting [3] is 0 of 6.

Regarding `c1ccc(-c2nc3ccccc3nc2-c2ccc(-c3nc4ccccc4nc3-c3ccccc3)cc2)cc1`, under setting [9], the survivor count is 6 of 6.

Take `CCOC(=O)/C=C(\C)Sc1cc(O)c2ccccc2c1O`: the survivor count was 2 of 6 under setting [9]; 1 of 6 (dose: 50.0 mg/kg/injection, schedule: Q01DX009 (ip), vehicle: saline with Tween-80); 1 of 6 under setting [8]; 0 of 6 under setting [7].

As to `CONCc1ccc(C(=O)NC(C)C)cc1`, the survivor count (dose: 400.0 mg/kg/injection, schedule: Q01DX009 (ip), vehicle: distilled water + Tween-80) is 3 of 6.

For the molecule `Cc1ccc(N=C(N)N/N=C/c2ccc3c(c2)Cc2ccccc2-3)cc1`, where the note is “dose: 100.0 mg/kg/injection, schedule: Q04DX002 (ip), vehicle: saline with Tween-80”, the survivor count is 1 of 6.

Take `CP1(=O)CCC2=C1CCc1cc(O)ccc12` (stereo not given): the survivor count under setting [1] was 6 of 6, the survivor count under setting [2] is 6 of 6 and the survivor count under setting [3] was 6 of 6.

On to `COc1c(OC2OC(CO)C(O)C(O)C2O)cc2c(c1OC)-c1ccc(OC)c(=O)cc1C(NC(C)=O)CC2` (stereo not given), for which the T/C (dose: 100.0 mg/kg/injection, schedule: Q01DX005 (ip), vehicle: saline) was 126 and 128 % of control. For the same molecule, under setting [6], the survivor count is on record as 2 of 5.

For the molecule `Cc1ccccc1C(=O)Nc1ccccc1-c1ccccc1`, under “dose: 100.0 mg/kg/injection, schedule: Q01DX009 (ip), vehicle: saline”, the survivor count is recorded as 5 of 6.

Regarding `CC1(C)CCCC2(C)C1CCC1(C)OC(/C(C=O)=C/C=O)CC12` (stereo not given), the survivor count (dose: 160.0 mg/kg/injection, schedule: Q01DX009 (ip), vehicle: Klucel (hydroxypropylcellulose) (HPC)) is 1 of 6.

For `CCN1C[C@]2(COC)[C@H](O)C[C@H](OC)[C@]34C1[C@H]([C@H](OC)[C@H]23)[C@]1(OC(C)=O)[C@H]2[C@@H](OC(=O)c3ccccc3)[C@](O)(C[C@H]24)[C@@H](OC)[C@@H]1O`, the T/C reads like this: (dose: 0.03 mg/kg/injection, schedule: Q01DX009 (ip), vehicle: saline) 92, 95, 105, 115, 116 % of control; under setting [10], 91, 97, 105 % of control; under setting [11], 95 and 125 % of control; under setting [12], 103 % of control. The survivor count is 2 of 6 and 5 of 6 under setting [10]; 1 of 6, 4 of 6, 6 of 6 under setting [11]; 0 of 6 and 2 of 6 under setting [12]; 0 of 6 (dose: 0.62 mg/kg/injection, schedule: Q01DX009 (ip), vehicle: saline); 0 of 6 (dose: 1.25 mg/kg/injection, schedule: Q01DX009 (ip), vehicle: saline); 0 of 6 (dose: 2.5 mg/kg/injection, schedule: Q01DX009 (ip), vehicle: saline). Where the note is “dose: 5.0 mg/kg/injection, schedule: Q01DX009 (ip), vehicle: saline”, the survivor count was 0 of 6.

`CCOc1ccc(C(C)c2cc3c(cc2OC)OCO3)cc1C` (stereo not given): the T/C under setting [5] is 144 % of control.
